Source: doi:10.1101/272500
Read-outs that look alike come from different tables or passages of the source. No constants are given. Whether binding was seen depends on the method and setting. Binding seen in cells or lysates may run through a third protein. Some entries that bind do so weakly or less than the wild type. For some of these results: Where a sequence is shown, tags or fusion partners need not be part of it. Values belong to the molecule of their own block, whether it stands above or below them.

By UniProt entry, the sequences of proteins in these tests, tags left out.
UniProt P01106: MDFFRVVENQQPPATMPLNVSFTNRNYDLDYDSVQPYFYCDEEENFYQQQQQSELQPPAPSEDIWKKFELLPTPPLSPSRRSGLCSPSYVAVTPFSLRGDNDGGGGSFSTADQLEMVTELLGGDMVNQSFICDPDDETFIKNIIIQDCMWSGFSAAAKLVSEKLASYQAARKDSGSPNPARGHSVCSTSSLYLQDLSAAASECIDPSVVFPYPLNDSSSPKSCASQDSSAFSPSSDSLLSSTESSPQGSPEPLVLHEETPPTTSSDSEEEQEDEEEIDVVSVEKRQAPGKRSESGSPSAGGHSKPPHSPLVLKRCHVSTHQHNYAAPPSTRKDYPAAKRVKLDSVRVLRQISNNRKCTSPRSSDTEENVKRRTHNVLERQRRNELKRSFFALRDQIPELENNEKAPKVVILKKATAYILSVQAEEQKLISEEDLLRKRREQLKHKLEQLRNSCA
UniProt Q05195: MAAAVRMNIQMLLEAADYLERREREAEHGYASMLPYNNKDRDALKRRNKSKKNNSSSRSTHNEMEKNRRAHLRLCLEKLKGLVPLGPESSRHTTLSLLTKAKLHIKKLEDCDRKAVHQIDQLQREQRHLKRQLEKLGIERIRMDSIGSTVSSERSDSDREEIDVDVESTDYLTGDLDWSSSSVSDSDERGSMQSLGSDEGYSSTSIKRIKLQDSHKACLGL
UniProt Q969H0: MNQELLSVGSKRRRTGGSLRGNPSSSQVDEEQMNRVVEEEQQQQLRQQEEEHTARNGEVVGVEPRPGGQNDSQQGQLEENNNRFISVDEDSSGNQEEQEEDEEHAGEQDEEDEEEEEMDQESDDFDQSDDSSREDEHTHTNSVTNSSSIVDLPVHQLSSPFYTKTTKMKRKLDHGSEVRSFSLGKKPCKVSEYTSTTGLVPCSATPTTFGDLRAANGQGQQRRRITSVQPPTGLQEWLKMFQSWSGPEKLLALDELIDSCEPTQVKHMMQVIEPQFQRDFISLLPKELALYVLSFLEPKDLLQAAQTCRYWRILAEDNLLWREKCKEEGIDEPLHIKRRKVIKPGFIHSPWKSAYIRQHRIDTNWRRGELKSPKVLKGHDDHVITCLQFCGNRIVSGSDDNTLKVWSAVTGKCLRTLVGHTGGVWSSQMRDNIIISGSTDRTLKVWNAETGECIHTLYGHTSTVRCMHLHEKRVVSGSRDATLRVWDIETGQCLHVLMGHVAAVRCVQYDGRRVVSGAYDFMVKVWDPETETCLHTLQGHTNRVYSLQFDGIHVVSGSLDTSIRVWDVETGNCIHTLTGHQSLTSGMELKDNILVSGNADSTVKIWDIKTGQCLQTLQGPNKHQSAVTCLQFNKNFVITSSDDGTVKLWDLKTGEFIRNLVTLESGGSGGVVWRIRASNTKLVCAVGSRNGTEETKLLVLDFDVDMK

Key:
[1] = molecular target: c-MYC (human (endogenous in SCC25)) (UniProt P01106); experiment: co-IP
[2] = molecular target: MXD1 (human (endogenous in SCC25)) (UniProt Q05195); experiment: co-IP
[3] = molecular target: T1, vitamin D receptor (human (endogenous in SCC25)) (UniProt P11473); experiment: co-IP
T1 sequence: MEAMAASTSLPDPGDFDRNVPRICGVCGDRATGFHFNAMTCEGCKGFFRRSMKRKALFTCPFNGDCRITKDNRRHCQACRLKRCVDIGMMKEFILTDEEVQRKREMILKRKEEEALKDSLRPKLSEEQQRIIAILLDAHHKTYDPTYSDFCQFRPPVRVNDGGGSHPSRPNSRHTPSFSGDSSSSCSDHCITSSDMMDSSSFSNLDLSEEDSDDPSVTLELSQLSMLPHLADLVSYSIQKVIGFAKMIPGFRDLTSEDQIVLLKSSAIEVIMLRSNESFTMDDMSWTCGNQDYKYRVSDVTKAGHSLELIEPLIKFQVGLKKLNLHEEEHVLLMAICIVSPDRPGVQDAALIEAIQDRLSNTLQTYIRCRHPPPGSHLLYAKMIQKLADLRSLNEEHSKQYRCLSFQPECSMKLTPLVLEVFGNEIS

[4] = molecular target: T2, GST fused to the full-length VDR (UniProt P11473); experiment: pull-down
T2 sequence: T1 sequence

[5] = molecular target: c-MYC (human (endogenous in SCC25)) (UniProt P01106); experiment: co-IP; remark: listed apart in the source
[6] = molecular target: MXD1 (human (endogenous in SCC25)) (UniProt Q05195); experiment: co-IP; remark: listed apart in the source

Molecule: Flag-tagged FBW7 (from UniProt Q969H0 1-707)
binding [1]: binds
binding [2]: binds
binding [3]: binds

Molecule: MXD1, in vitro translated (from UniProt Q05195 1-221)
binding [4]: binds

Molecule: c-MYC, in vitro translated (from UniProt P01106 1-454)
binding [4]: binds

binding [5]: binds
binding [6]: binds
B1: vitamin D receptor (receptor, UniProt P11473 1-427)
chain: T1 sequence
